The results in this text go back to PubChem BioAssay AID1487 (National Center for Advancing Translational Sciences (NCATS), 2009).

This is one part of the list. Shown are side measurements of this screen, not its main read-out; they come without a call. Compounds called inactive in the main read-out are mostly missing here. Words in brackets tell the shape of the fitted curve; partial curves, single points and poor fits give uncertain potencies.

This experiment in a line: qHTS Assay for Modulators of Lamin A Splicing. The conditions noted are these: HeLa LMNA splicing GFP/RFP minigene ratio, 48 h. Put shortly:
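S3 HeLa stable clones carrying a lamin A-EGFP splicing minigene plus DsRed2 were seeded at 600 cells/well in Opti-MEM with 2% FBS, pin-dosed and incubated 48 h at 37°C. Acumen cytometry (488 nm) gave the GFP/RFP total-intensity ratio.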

Where [1] appears, read: measured here: RFP viability control channel.
Where [2] appears, read: measured here: GFP splicing reporter channel.

In the case of `c1cnn(-c2nc(N3CCOCC3)nc(N3CCOCC3)n2)c1`, the concentration at half-maximal activity (AC50) under setting [1] was 11.2 µM [rising, partial curve]. With `COc1ccc(OC)c(C(=O)CSc2nnc(-c3cccnc3)n2C)c1`, under setting [2], the half-maximal activity concentration (AC50) was 5.01 µM [rising, partial curve, poor fit].

As to `COc1cccc(N(C(=O)CS(=O)CC(=O)Nc2ccc(F)cc2)C(C(=O)NC2CCCCC2)c2cccs2)c1` (centres undefined), under setting [2], the AC50 is 0.00316 µM [falling, full curve, poor fit].

In the case of `CN(c1ccccc1)S(=O)(=O)c1ccc(NC(=S)NC(=O)C2CC2)cc1`, under setting [1], the AC50 was 17.8 µM [rising, partial curve]. For the compound `O=C(O)/C=C/C(=O)Nc1ccc(SC(F)(F)C(F)(F)C(F)(F)F)cc1`, the AC50 under setting [1] is 0.708 µM [rising, full curve]. Turning to `COc1cccc(N/C(SCc2cccc([N+](=O)[O-])c2)=C(/C#N)C(=O)NCc2cccs2)c1`, the AC50 under setting [2] is 10 µM [rising, partial curve, poor fit] and the AC50 under setting [1] is 10 µM [rising, partial curve, poor fit]. For the compound `CCc1ccccc1NC(=O)Nc1cc(C(=O)NCc2ccc(OC)cc2)ccc1N1CCCC1`, the concentration at half-maximal activity (AC50) by setting is: under setting [2], 17.8 µM [falling, single point]; under setting [1], 17.8 µM [falling, partial curve]. On to `COCCCNC(=O)COc1ccc(Br)cc1Cl`, for which the AC50 reads like this: under setting [2], 15.8 µM [rising, partial curve, poor fit]; under setting [1], 0.708 µM [rising, partial curve, poor fit]. As to `CC(C)=CCN1CCN(Cc2cccn2-c2ncccn2)CC1CCO` (centres undefined), the AC50 under setting [1] was 35.5 µM [rising, single point]. As for `c1c2c(cc3sc(N4CCCCC4)nc13)OCO2`, the AC50 under setting [1] is 20 µM [rising, single point]. In the case of `CC1(C)O[C@@H]2C[C@H]3[C@@H]4C[C@H](F)C5=CC(=O)C=C[C@]5(C)[C@@]4(F)[C@@H](O)C[C@]3(C)[C@]2(C(=O)CO)O1`, the AC50 is, setting by setting: under setting [2], 5.62 µM [rising, partial curve, poor fit]; under setting [1], 35.5 µM [rising, single point]. On to `O=C(CCc1ccc(Oc2cc([N+](=O)[O-])cc([N+](=O)[O-])c2)cc1)Nc1cccc(Cl)c1`, for which, under setting [1], the AC50 is 35.5 µM [rising, single point].

For `Cc1ccc(N=Cc2nc(-c3ccc(C)cc3)oc2O)cc1`, the AC50 under setting [2] is 5.62 µM [rising, single point]. Regarding `O=C(c1ccc(Cl)cc1)C1CCCN(C(=O)/C=C/c2ccccn2)C1` (centres undefined), the AC50 is, setting by setting: under setting [2], 12.6 µM [falling, partial curve]; under setting [1], 0.0794 µM [falling, full curve, poor fit]. `CC(C)(C)C(=O)N1CCC[C@H]1C(O)(c1ccccc1)c1ccccc1`: the AC50 was 2.24 µM [rising, full curve, poor fit] under setting [2] and 5.62 µM [rising, full curve] under setting [1]. As to `O=C(NCc1ccco1)c1cc(S(=O)(=O)N2CCCc3ccccc32)ccc1Cl`, the half-maximal activity concentration (AC50) was 8.91 µM [rising, partial curve] under setting [2] and 35.5 µM [rising, single point] under setting [1]. For the compound `CCN(c1ccccc1)S(=O)(=O)c1ccc2[nH]cc(C(=O)NCc3ccc(C)cc3)c(=O)c2c1`, the AC50 was 15.8 µM [falling, partial curve, poor fit] under setting [2] and 15.8 µM [falling, partial curve] under setting [1]. For `CCOC(=O)c1c(CSc2ccc(C)cc2)oc2ccc(O)cc12`, the AC50 under setting [2] was 31.6 µM [rising, single point] and the concentration at half-maximal activity (AC50) under setting [1] is 35.5 µM [rising, single point]. For `COc1cccc(NC(=O)C(OC(=O)/C=C/c2ccc3c(c2)OCO3)c2ccccc2)c1` (centres undefined), under setting [1], the AC50 is 3.98 µM [falling, single point].

With `COc1ccc(-c2nnc(SC)o2)c(OC)c1`, the AC50 under setting [1] was 0.0631 µM [rising, full curve]. For the compound `N#CCCn1c(=O)c(-c2cccs2)nc2cnc(Nc3ccccc3)nc21`, the AC50 was 12.6 µM [falling, partial curve] under setting [2] and 7.94 µM [falling, partial curve] under setting [1]. `OCCNCc1cc(Br)ccc1OCc1ccccc1Cl`: the AC50 under setting [1] is 17.8 µM [rising, single point]. For `Cc1ccc(C2(CC(=O)Nc3nccs3)CCOC(C(C)C)C2)cc1` (centres undefined), the AC50 under setting [2] is 35.5 µM [rising, single point] and the AC50 under setting [1] is 35.5 µM [rising, single point]. For the compound `CCOc1ccc(C(C)NC(=O)c2cccc(F)c2)cc1` (centres undefined), the AC50 is, setting by setting: under setting [2], 11.2 µM [rising, single point]; under setting [1], 20 µM [rising, single point]. Regarding `Cc1cc(C)nc(NS(=O)(=O)c2ccc(N)cc2)n1`, the AC50 under setting [2] is 0.2 µM [falling, single point]. The same measure, in the same setting: the same measure for `O=c1[nH]c(=O)n(Cc2ccccc2)c2nc(-c3ccco3)cc(C(F)(F)F)c12`: 12.6 µM [rising, partial curve]. `COc1ccc(-c2nc3sc(CCNS(=O)(=O)c4ccc(F)c(C)c4)c(C)n3n2)cc1`: the AC50 by setting is: under setting [2], 5.01 µM [falling, partial curve]; under setting [1], 35.5 µM [falling, partial curve, poor fit]. With `Cc1cc(S(=O)(=O)NCC(c2ccc(N(C)C)cc2)N2CCOCC2)ccc1F` (centres undefined), the AC50 under setting [2] was 1.58 µM [rising, partial curve, poor fit]. Consider `CCCCCC1CC(=O)N(Cc2ccc(Cl)cc2)C(=O)N1` (centres undefined), for which the half-maximal activity concentration (AC50) by setting is: under setting [2], 14.1 µM [rising, partial curve]; under setting [1], 35.5 µM [rising, single point]. As to `O=C(COc1ccccc1)NNc1nc2c(F)cccc2s1`, the AC50 under setting [1] is 3.16 µM [rising, full curve, poor fit]. Consider `CCOC(=O)N1CCN(C(=O)COc2ccc(Br)cc2Cl)CC1`, for which the AC50 under setting [2] is 12.6 µM [rising, single point]. Still for that read-out and setting: with `Fc1cc(F)cc(NC(=S)N2CCC(c3ccccc3)C2)c1` (centres undefined) the figure was 3.98 µM [rising, single point]; with `CCOC(=O)N1CCC(NC(=O)c2cc(S(=O)(=O)N3CCOCC3)ccc2F)CC1`, 17.8 µM [rising, partial curve, poor fit].

For the compound `CN(C(=O)CN(CCO)CC(=O)N(C)C(C)(C)Cc1ccccc1)C(C)(C)Cc1ccccc1`, the AC50 under setting [2] is 0.0562 µM [falling, single point] and the AC50 under setting [1] is 0.0447 µM [falling, single point].
